PubChem BioAssay AID743454, Peter MacCallum Cancer Centre, 2014

- Assay: 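Knock-downs lowering viability or raising caspase 3/7 activity in vorinostat-treated resistant cells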 (primary screen)
- System: human HCT116-VR colon cancer cells, selected for vorinostat resistance
- Reagent: siRNA pool against human genes, 40 nM siRNA pool
- Timing: vorinostat for 24 h, read-out about 72 h after transfection
- Conditions: vorinostat at 2.5 µM final
- Detection: 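Two measures, CellTiter-Fluor viability and luminescent caspase 3/7 activity, each as fold change against same-plate mock wells, mean of duplicates, then screen-wide robust z-score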
- Scale: viability robust z-score: higher = more viable cells than screen typical; caspase robust z-score: higher = more caspase 3/7 activity than screen typical
- Rule for the call: 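Hits are knock-downs in viability class RV1/RV2 or caspase class CA1/CA2, excluding ones that killed cells in the no-drug cell-count arm; hits then retested with single siRNAs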
The deposit covers about 18,000 reagents; shown is a part drawn at random. Of all reagents, 450 (2.5%) were called active. 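Single biological run; no consistent viability z cut-off exists, so the class columns, not z-scores, define the calls.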

| viability hit class | caspase hit class | viability robust z-score | caspase robust z-score | call | Gene |
| --- | --- | --- | --- | --- | --- |
| no change | no change | -1.2 | 2.31 | inactive | KRT13 (GeneID 3860) |
| no change | no change | 1.09 | -0.78 | inactive | GLIS1 (GeneID 148979) |
| no change | no change | -1.68 | -1.29 | inactive | DDX27 (GeneID 55661) |
| no change | no change | 0.9 | 0.01 | inactive | EDRF1 (GeneID 26098) |
| no change | no change | -1.17 | -0.75 | inactive | NFE4 (GeneID 58160) |
| no change | no change | 1.95 | 0.93 | inactive | DENND5A (GeneID 23258) |
| no change | no change | -0.37 | -0.06 | inactive | PHF20 (GeneID 51230) |
| no change | no change | -0.36 | -0.49 | inactive | OPCML (GeneID 4978) |
| no change | CA2 (caspase activation) | -0.94 | 5.24 | active | PCP2 (GeneID 126006) |
| no change | no change | -3.21 | 0.52 | inactive | TUBA1B (GeneID 10376) |
| no change | no change | 2.1 | 0.02 | inactive | H2AC19 (GeneID 723790) |
| no change | no change | -1.52 | 4.08 | inactive | NOG (GeneID 9241) |
| no change | no change | -1.06 | 2.22 | inactive | COX8C (GeneID 341947) |
| no change | no change | 0.44 | -0.67 | inactive | CMTR2 (GeneID 55783) |
| no change | no change | 0.96 | -0.42 | inactive | AXIN1 (GeneID 8312) |
| no change | no change | 1.29 | -0.02 | inactive | COL7A1 (GeneID 1294) |
| no change | no change | 1.12 | -0.56 | inactive | TOE1 (GeneID 114034) |
| no change | no change | -0.4 | -0.2 | inactive | LMTK1 (GeneID 9625) |
| no change | no change | 0.74 | 0.37 | inactive | FASTKD5 (GeneID 60493) |
| no change | no change | -2.51 | -0.31 | inactive | CCND2 (GeneID 894) |
| no change | no change | 1.64 | -0.09 | inactive | NTRK3 (GeneID 4916) |
| no change | no change | -0.36 | -0.34 | inactive | KIF16B (GeneID 55614) |
| no change | no change | 0.72 | 1.12 | inactive | OPN1MW2 (GeneID 728458) |
| no change | CA2 (caspase activation) | -0.76 | 5.64 | active | LBHD1 (GeneID 79081) |
| no change | no change | 1.54 | -0.04 | inactive | PRAMEF2 (GeneID 65122) |
| no change | no change | 0.42 | -0.25 | inactive | NLGN2 (GeneID 57555) |
| no change | no change | -0.18 | 0.53 | inactive | DTX4 (GeneID 23220) |
| no change | no change | -1.56 | 0.94 | inactive | LINC03124 (GeneID 29798) |
| no change | no change | -0.36 | -1.4 | inactive | KLHDC1 (GeneID 122773) |
| no change | no change | -0.34 | 1.39 | inactive | ERCC2 (GeneID 2068) |
| no change | no change | -2.1 | 0.66 | inactive | COTL1 (GeneID 23406) |
| no change | no change | 1.6 | 0.22 | inactive | HDGFL2 (GeneID 84717) |
| no change | no change | 0.34 | 0.31 | inactive | OR8G5 (GeneID 219865) |
| no change | no change | -0.44 | -0.66 | inactive | S100A13 (GeneID 6284) |
| no change | no change | 1.41 | 0.08 | inactive | DEK (GeneID 7913) |
| no change | no change | 0.85 | -0.1 | inactive | OR5F1 (GeneID 338674) |
| no change | no change | 0.05 | 0.1 | inactive | MTMR9 (GeneID 66036) |
| no change | no change | 0.68 | -0.43 | inactive | PRAME (GeneID 23532) |
| no change | no change | -0.48 | -0.74 | inactive | CLCNKB (GeneID 1188) |

Just “caspase robust z-score”, for 4 of the entries above:
NLGN2 (GeneID 57555)	-0.25
DTX4 (GeneID 23220)	0.53
LINC03124 (GeneID 29798)	0.94
KLHDC1 (GeneID 122773)	-1.4
